The list does not hold the whole screen: it gathers tests that were run many times, whatever their T/C, doses with no T/C, and many T/C values between a quarter and a half above the control. Further doses and runs are listed elsewhere. T/C: endpoint of the treated group in % of that of the vehicle group. Some doses have a count of surviving animals in place of a T/C: the source files T/C as zero there, which appears to mark a toxic dose or a test without result, not a measured value. Some doses without a T/C left all or most animals alive at the check, yet need not have been tolerated: survival well below the control is almost never listed, so the zero probably covers shortened survival too. Survivors were counted at the toxicity check, usually on the fifth day, unless a day is given; later deaths do not show. Schedules are NCI's codes, taken here to give the interval after Q, in days (D) or hours (H), and the number of doses after X. Some structures stand for samples that the source files as different forms (salt, stereo form or complex); doses refer to the form tested. Marks such as (2×) stand for listed records that agree. Where survival is the endpoint, this PubChem deposit counts one and a half times the control or more as active, and values a quarter to a half above the control carry no call in these data; other NCI protocols may use other cut-offs. Some T/C values carry the count of animals alive at the toxicity check (mostly the fifth day); without a count, all were alive then. Some entries were tested several times; their values stand side by side, smallest first.
System: BDF1 mice, P388 leukemia ip, median survival T/C
Assay: NCI In Vivo Anticancer Drug Screen. Data for tumor model P388 Leukemia (intraperitoneal) in B6D2F1 (BDF1) mice
Settings: T/C endpoint: median survival time, higher T/C = longer survival
Summary of the method: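 Antitumour effect was judged in vivo: survival in drug-treated mice, normalised to that of vehicle-dosed controls, gives the reported T/C.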

[1] = dose: 150.0 mg/kg/injection, schedule: Q01DX009 (ip), vehicle: Klucel (hydroxypropylcellulose) (HPC)
[2] = dose: 50.0 mg/kg/injection, schedule: Q01DX009 (ip), vehicle: Klucel (hydroxypropylcellulose) (HPC)
[3] = dose: 100.0 mg/kg/injection, schedule: Q01DX009 (ip), vehicle: Klucel (hydroxypropylcellulose) (HPC)
[4] = dose: 400.0 mg/kg/injection, schedule: Q04DX003 (ip), vehicle: saline

Question: `O=NN(CCF)C(=O)NC1CCC(NC(=O)N(CCF)N=O)CC1` (stereo not drawn) was tested. Which survivor count (dose: 200.0 mg/kg/injection, schedule: Q04DX003 (ip), vehicle: alcohol) did it give?
Answer: 4 of 6

Question: What about the survivor count (dose: 300.0 mg/kg/injection, schedule: Q04DX003 (ip), vehicle: alcohol) of the same compound?
Answer: 0 of 6

Question: And the survivor count (dose: 400.0 mg/kg/injection, schedule: Q04DX003 (ip), vehicle: saline with Tween-80)?
Answer: 0 of 6

Question: With `CN1N=Nc2cccc3cccc1c23` as the compound, how does the survivor count [1] read?
Answer: 0 of 6

Question: And the survivor count (dose: 225.0 mg/kg/injection, schedule: Q01DX009 (ip), vehicle: Klucel (hydroxypropylcellulose) (HPC))?
Answer: 0 of 6

Question: Which survivor count (dose: 400.0 mg/kg/injection, schedule: Q01DX009 (ip), vehicle: saline with Tween-80) does the source give for `[I][Hg][CH2]C1OCCOC1[CH2][Hg][I]` (stereo not drawn) here?
Answer: 1 of 6

Question: With `COc1cc(/C=C(/C)[N+](=O)[O-])ccc1O` as the compound, how does the T/C (dose: 25.0 mg/kg/injection, schedule: Q01DX009 (ip), vehicle: carboxymethylcellulose (CMC)) read?
Answer: 125 % of control [5 of 6 alive]

Question: What about the T/C (dose: 37.5 mg/kg/injection, schedule: Q01DX009 (ip), vehicle: Klucel (hydroxypropylcellulose) (HPC)) of the same compound?
Answer: 148 % of control

Question: And the T/C [2]?
Answer: 128 % of control

Question: And the T/C (dose: 50.0 mg/kg/injection, schedule: Q01DX009 (ip), vehicle: carboxymethylcellulose (CMC))?
Answer: 127 % of control

Question: And the T/C (dose: 50.0 mg/kg/injection, schedule: Q01DX009 (ip), vehicle: saline)?
Answer: 137 % of control [5 of 6 alive]

Question: What about the T/C (dose: 75.0 mg/kg/injection, schedule: Q01DX009 (ip), vehicle: Klucel (hydroxypropylcellulose) (HPC)) of the same compound?
Answer: 131 % of control

Question: What about the T/C [3] of the same compound?
Answer: 126 and 138 % of control [5 of 6 alive]

Question: What about the T/C (dose: 100.0 mg/kg/injection, schedule: Q01DX009 (ip), vehicle: carboxymethylcellulose (CMC)) of the same compound?
Answer: 134 % of control [5 of 6 alive]

Question: What about the T/C (dose: 100.0 mg/kg/injection, schedule: Q01DX009 (ip), vehicle: saline) of the same compound?
Answer: 125 % of control

Question: And the survivor count [1]?
Answer: 1 of 6

Question: And the T/C (dose: 200.0 mg/kg/injection, schedule: Q01DX009 (ip), vehicle: Klucel (hydroxypropylcellulose) (HPC))?
Answer: 128 % of control

Question: And the survivor count (dose: 200.0 mg/kg/injection, schedule: Q01DX009 (ip), vehicle: saline)?
Answer: 0 of 6

Question: And the survivor count [4]?
Answer: 0 of 6

Question: For `O=NN(CCBr)C(=O)Nc1ccccc1`, which T/C (dose: 3.0 mg/kg/injection, schedule: Q01DX009 (ip), vehicle: Klucel (hydroxypropylcellulose) (HPC)) is on record?
Answer: 125 % of control

Question: What about the T/C (dose: 4.5 mg/kg/injection, schedule: Q01DX009 (ip), vehicle: Klucel (hydroxypropylcellulose) (HPC)) of the same compound?
Answer: 145 % of control

Question: And the T/C (dose: 7.0 mg/kg/injection, schedule: Q01DX009 (ip), vehicle: Klucel (hydroxypropylcellulose) (HPC))?
Answer: 137 % of control

Question: And the T/C [2]?
Answer: 140 % of control

Question: And the survivor count [3]?
Answer: 6 of 6

Question: And the T/C (dose: 100.0 mg/kg/injection, schedule: Q04DX003 (ip), vehicle: Klucel (hydroxypropylcellulose) (HPC))?
Answer: 140 % of control

Question: What about the survivor count (dose: 150.0 mg/kg/injection, schedule: Q04DX003 (ip), vehicle: Klucel (hydroxypropylcellulose) (HPC)) of the same compound?
Answer: 6 of 6

Question: What about the survivor count (dose: 200.0 mg/kg/injection, schedule: Q04DX003 (ip), vehicle: Klucel (hydroxypropylcellulose) (HPC)) of the same compound?
Answer: 6 of 6

Question: And the survivor count (dose: 400.0 mg/kg/injection, schedule: Q04DX003 (ip), vehicle: Klucel (hydroxypropylcellulose) (HPC))?
Answer: 4 of 6

Question: How did the survivor count (dose: 100.0 mg/kg/injection, schedule: Q04DX003 (ip), vehicle: saline) turn out when `NC(N)=N/N=C/C=N/N=C(N)N` was run?
Answer: 3 of 6

Question: And the survivor count (dose: 200.0 mg/kg/injection, schedule: Q04DX003 (ip), vehicle: saline)?
Answer: 0 of 6 (2×)

Question: And the survivor count [4]?
Answer: 0 of 6 (2×)

Question: Which survivor count (dose: 40.0 mg/kg/injection, schedule: Q01DX009 (ip), vehicle: Klucel (hydroxypropylcellulose) (HPC)) does the source give for `COc1cc([C@@H]2c3cc4c(cc3[C@H](SC(=N)N)[C@H]3COC(=O)[C@H]23)OCO4)cc(OC)c1OC` here?
Answer: 7 of 10

Question: What about the survivor count (dose: 60.0 mg/kg/injection, schedule: Q01DX009 (ip), vehicle: Klucel (hydroxypropylcellulose) (HPC)) of the same compound?
Answer: 9 of 10

— PubChem BioAssay AID328 (DTP/NCI, 2004)
